{"source": "patent EP0840750B1", "about": "“HA-2 ANTIGENIC PEPTIDE” (Rijksuniversiteit te Leiden, priority 1995, dated 2006)", "key": {"[1]": {"tested_on": "HA-2 specific CTL clone 5H17", "assay": "51Cr release assay: peptide sensitization of T2 cells for lysis by CTL clone 5H17", "assay_type": "cell-based, human"}, "Clone 5H13": {"tested_on": "Clone 5H13", "assay": "51Cr release assay: peptide sensitization of T2 cells for lysis by CTL clone 5H13", "assay_type": "cell-based, human"}}, "note": "Part of at least one peptide drawing is inferred or uncertain, most often the ends. Ends that are not written are not given here."}
{"sequence": "YYGEVCVSV", "values": [{"measurement": "HA-2 specific sensitizing CTL activity (lysis of T2)", "setting": "[1]; result in words, clone 5H17", "result": "No activity was found"}, {"measurement": "sensitizing activity / recognition by clone 5H13", "setting": "Clone 5H13; result in words, clone 5H13", "result": "No activity was found"}]}
{"sequence": "YIGSVLISV", "values": [{"measurement": "EC50", "setting": "[1]; T2 cell line sensitized for lysis by clone 5H17, read-out: concentration inducing 50% lysis", "result": "5 to 50", "unit": "nM"}, {"measurement": "EC50", "setting": "Clone 5H13; T2 cells sensitized for lysis by 5H13, read-out: 50% lysis inducing concentration", "result": "5 to 50", "unit": "nM"}]}
